# Laboratory results published in publication PMC8143644.
# The chains behind the UniProt entries cited, without tags or fusion partners. Where a name states a change or a piece, a line headed by the entry shows the natural chain unless it says otherwise.
# UniProt Q9W3M7: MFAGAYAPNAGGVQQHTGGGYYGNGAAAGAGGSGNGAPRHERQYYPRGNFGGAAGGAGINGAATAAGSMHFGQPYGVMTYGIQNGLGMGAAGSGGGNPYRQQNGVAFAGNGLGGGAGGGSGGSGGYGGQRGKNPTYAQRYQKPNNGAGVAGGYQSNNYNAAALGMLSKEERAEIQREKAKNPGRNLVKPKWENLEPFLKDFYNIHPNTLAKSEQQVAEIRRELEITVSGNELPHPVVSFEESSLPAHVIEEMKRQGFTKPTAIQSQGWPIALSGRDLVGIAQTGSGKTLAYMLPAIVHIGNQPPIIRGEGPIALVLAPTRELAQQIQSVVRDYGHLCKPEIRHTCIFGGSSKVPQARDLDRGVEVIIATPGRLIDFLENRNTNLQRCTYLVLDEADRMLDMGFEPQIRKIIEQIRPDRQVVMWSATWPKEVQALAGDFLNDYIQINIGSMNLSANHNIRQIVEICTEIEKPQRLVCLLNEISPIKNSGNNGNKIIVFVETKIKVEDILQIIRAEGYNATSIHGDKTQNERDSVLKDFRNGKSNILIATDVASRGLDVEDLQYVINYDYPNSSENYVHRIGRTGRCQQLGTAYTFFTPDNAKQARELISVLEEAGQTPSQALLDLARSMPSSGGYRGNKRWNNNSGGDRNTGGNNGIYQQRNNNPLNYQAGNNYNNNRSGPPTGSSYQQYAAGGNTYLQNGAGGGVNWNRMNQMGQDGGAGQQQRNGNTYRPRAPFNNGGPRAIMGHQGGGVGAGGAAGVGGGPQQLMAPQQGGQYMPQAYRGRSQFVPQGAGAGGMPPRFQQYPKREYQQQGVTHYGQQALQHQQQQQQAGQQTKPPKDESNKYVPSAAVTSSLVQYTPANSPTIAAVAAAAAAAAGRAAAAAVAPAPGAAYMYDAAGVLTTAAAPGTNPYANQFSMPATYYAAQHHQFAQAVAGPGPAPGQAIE
# UniProt A1ZB44: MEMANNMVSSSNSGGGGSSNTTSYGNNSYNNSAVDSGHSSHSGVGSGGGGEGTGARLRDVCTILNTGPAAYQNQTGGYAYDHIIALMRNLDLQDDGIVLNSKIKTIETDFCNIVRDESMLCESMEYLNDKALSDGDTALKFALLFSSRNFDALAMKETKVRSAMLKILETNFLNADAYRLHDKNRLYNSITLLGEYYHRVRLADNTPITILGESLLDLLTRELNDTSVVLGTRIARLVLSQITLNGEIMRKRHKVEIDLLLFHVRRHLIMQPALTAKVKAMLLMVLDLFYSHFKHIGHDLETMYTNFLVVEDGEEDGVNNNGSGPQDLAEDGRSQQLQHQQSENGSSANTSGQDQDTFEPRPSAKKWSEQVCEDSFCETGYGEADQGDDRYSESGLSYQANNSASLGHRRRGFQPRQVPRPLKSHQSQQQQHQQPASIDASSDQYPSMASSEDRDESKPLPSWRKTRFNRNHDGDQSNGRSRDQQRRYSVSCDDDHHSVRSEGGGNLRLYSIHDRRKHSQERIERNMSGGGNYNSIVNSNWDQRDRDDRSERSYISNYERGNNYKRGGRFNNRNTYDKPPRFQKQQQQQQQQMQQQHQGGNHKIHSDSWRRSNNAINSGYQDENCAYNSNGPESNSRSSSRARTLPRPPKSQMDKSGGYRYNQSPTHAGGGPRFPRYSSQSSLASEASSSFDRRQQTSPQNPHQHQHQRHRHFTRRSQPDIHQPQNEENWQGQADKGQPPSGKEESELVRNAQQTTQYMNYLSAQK
# UniProt Q9NFU0: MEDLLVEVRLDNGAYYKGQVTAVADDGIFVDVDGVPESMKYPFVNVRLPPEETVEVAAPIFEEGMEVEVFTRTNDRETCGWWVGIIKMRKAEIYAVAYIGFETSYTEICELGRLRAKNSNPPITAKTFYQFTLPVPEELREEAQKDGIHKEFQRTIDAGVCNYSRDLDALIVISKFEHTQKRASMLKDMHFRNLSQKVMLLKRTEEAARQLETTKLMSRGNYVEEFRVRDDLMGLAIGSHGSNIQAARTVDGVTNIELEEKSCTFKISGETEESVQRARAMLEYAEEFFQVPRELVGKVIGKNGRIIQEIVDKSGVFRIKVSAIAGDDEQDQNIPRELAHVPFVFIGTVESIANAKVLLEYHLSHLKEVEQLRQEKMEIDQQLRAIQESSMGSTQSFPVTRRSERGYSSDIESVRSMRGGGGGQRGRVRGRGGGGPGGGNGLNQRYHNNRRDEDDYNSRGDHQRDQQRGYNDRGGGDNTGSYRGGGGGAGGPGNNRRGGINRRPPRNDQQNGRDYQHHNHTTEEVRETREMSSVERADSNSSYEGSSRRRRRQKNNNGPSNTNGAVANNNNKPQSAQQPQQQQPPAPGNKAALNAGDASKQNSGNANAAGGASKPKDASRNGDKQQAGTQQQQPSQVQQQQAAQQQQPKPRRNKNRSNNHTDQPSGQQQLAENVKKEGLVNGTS
# UniProt P55824: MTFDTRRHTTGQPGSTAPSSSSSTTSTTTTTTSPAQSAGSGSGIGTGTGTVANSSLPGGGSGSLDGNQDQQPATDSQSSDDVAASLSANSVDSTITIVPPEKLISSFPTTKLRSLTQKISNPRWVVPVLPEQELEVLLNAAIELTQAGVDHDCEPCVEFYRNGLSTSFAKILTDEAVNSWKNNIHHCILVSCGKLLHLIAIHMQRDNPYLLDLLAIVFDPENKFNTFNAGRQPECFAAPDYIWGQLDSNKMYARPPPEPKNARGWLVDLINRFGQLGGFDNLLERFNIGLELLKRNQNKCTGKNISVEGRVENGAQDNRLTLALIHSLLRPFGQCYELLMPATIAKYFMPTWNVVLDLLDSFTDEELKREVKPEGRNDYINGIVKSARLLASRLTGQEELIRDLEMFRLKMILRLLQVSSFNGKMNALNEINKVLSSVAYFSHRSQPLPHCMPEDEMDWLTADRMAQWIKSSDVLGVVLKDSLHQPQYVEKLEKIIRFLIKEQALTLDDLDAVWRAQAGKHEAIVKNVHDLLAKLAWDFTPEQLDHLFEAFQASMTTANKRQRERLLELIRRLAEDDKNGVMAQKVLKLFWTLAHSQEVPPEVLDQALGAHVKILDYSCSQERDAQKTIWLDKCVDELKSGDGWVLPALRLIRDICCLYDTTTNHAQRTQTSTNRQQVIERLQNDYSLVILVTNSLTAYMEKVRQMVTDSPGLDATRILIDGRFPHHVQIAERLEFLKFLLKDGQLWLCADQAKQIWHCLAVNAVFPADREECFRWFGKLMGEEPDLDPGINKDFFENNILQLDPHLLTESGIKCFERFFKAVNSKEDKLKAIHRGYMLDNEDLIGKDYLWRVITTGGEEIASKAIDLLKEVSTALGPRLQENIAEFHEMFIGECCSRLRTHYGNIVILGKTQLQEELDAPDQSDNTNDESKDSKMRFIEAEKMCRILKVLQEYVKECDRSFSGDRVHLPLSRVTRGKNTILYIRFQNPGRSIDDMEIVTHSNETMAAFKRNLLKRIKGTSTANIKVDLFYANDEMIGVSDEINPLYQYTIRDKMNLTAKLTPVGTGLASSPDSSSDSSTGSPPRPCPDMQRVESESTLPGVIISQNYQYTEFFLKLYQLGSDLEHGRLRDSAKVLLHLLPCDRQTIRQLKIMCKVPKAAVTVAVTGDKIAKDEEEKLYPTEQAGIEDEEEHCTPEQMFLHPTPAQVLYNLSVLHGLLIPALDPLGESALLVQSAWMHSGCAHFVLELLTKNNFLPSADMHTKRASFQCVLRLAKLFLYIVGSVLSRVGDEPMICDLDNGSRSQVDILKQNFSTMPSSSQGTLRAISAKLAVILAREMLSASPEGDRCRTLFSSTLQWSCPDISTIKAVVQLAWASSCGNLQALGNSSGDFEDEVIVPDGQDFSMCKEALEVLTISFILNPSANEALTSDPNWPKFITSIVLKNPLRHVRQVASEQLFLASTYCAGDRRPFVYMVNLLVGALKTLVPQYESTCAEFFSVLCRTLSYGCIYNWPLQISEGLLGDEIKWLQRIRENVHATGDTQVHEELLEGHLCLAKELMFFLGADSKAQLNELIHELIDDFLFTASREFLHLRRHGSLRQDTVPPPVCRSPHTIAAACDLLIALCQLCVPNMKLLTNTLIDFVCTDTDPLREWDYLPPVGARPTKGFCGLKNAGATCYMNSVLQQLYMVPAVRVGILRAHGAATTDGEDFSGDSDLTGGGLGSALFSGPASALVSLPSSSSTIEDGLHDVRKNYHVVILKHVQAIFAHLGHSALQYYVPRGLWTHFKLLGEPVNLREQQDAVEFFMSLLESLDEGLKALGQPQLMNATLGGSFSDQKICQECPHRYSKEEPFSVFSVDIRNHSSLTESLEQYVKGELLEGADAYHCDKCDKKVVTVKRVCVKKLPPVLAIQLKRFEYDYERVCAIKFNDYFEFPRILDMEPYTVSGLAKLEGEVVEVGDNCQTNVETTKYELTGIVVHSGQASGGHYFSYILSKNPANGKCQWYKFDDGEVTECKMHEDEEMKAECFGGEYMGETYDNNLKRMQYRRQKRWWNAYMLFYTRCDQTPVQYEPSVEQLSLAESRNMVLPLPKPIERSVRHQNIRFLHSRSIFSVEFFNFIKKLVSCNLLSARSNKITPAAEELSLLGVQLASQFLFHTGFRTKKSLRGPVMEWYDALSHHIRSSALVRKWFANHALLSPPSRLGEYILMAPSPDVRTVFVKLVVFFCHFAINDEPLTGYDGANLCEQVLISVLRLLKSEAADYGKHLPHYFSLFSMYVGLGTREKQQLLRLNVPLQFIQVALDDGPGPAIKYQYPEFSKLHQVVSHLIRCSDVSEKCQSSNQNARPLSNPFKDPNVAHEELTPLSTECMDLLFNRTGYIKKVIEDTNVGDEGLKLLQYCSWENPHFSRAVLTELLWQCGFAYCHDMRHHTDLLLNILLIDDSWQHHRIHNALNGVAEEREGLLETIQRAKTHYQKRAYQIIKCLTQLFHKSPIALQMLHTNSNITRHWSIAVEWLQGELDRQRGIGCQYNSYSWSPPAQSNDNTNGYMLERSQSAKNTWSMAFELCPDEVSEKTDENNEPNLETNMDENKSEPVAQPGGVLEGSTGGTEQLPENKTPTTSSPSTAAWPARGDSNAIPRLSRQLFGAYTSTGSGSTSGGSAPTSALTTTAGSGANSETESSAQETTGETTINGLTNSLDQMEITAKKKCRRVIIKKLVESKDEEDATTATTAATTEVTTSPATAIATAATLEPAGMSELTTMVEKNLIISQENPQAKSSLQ
# UniProt Q05856: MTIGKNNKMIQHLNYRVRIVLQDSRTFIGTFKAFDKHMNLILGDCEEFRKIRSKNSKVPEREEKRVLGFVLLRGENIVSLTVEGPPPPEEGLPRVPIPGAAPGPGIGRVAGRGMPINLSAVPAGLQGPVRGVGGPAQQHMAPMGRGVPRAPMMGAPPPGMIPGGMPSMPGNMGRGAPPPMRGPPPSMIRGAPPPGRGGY
# UniProt P21187: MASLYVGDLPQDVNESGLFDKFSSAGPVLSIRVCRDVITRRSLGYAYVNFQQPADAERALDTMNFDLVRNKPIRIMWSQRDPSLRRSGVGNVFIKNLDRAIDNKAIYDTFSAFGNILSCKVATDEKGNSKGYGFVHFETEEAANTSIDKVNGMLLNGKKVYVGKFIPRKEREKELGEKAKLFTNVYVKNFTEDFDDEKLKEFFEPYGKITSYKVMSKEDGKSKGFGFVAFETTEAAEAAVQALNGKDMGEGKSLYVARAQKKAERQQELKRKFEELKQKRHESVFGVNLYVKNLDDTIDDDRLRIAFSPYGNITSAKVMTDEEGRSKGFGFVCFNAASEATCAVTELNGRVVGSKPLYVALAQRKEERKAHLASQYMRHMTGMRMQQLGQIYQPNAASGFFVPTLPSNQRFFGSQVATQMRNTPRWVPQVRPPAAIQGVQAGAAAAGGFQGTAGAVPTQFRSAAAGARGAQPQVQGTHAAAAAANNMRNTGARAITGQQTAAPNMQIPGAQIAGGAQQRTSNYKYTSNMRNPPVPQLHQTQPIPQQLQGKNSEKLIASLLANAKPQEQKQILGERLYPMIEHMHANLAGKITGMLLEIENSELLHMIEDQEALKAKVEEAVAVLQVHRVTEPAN
# UniProt Q02748: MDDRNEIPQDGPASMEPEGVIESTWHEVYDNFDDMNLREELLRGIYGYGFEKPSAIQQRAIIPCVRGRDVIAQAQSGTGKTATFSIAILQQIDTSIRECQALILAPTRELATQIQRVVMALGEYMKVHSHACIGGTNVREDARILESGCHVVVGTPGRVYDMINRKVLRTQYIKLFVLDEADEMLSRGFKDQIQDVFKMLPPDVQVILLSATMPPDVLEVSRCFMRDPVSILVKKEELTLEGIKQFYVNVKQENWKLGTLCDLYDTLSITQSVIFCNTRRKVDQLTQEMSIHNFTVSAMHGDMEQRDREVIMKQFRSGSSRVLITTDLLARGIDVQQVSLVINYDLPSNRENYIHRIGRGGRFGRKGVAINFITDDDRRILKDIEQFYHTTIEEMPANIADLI
# These are yes or no findings as the source states them, for the method shown. In cells and extracts the contact can be indirect. Here binding means that the protein was enriched with, or labelled near, the bait; the list need not be complete. For some of these results: No binding means not detected with the bait. Tags and fused reporters may be left off the sequences shown.
# Key:
# Experiment in all cases: affinity purification with mass spectrometry; whole ovaries of flies expressing GFP-tagged baits lysed in 50 mM Tris-HCl pH 7.5, 100 mM NaCl, 250 mM sucrose, 0.1% Nonidet P-40, 1 mM DTT; RNase A/T1 treated; GFP-TRAP MA beads, 1 h at 4 °C; tag alone as control; label-free LC-MS/MS (all six baits) and dimethyl labeling MS (Hrp48, Vas)
# [1] = molecular target: T1, Stau-GFP (Drosophila melanogaster) (UniProt P25159)
# T1 sequence: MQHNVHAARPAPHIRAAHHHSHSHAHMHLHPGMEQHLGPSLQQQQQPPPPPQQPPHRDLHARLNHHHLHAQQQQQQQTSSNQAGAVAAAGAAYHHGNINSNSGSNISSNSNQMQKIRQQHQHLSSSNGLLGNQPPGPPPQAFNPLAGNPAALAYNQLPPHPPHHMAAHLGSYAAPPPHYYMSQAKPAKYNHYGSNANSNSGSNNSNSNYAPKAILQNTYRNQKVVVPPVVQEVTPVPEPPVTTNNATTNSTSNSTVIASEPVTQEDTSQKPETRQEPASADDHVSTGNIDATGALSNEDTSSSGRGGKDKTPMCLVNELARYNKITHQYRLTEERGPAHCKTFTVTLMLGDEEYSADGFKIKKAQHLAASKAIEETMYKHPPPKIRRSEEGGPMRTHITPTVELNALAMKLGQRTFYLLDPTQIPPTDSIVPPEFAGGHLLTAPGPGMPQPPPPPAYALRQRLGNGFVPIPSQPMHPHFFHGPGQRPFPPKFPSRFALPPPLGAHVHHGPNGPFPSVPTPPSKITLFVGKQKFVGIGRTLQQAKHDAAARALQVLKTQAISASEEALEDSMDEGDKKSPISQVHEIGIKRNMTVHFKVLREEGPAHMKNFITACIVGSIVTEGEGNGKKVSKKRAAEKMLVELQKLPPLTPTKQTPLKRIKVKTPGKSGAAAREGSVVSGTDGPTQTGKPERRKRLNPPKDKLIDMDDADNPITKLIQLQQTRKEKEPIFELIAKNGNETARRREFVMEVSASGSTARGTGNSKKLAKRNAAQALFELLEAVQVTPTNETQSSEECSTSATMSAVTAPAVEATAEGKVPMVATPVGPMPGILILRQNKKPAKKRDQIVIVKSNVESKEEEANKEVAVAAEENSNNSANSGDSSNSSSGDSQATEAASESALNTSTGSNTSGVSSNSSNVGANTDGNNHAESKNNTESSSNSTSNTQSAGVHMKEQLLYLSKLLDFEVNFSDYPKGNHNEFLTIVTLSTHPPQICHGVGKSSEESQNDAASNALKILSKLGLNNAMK
# [2] = molecular target: T2, Glo-GFP (Drosophila melanogaster) (UniProt Q9VGH5)
# T2 sequence: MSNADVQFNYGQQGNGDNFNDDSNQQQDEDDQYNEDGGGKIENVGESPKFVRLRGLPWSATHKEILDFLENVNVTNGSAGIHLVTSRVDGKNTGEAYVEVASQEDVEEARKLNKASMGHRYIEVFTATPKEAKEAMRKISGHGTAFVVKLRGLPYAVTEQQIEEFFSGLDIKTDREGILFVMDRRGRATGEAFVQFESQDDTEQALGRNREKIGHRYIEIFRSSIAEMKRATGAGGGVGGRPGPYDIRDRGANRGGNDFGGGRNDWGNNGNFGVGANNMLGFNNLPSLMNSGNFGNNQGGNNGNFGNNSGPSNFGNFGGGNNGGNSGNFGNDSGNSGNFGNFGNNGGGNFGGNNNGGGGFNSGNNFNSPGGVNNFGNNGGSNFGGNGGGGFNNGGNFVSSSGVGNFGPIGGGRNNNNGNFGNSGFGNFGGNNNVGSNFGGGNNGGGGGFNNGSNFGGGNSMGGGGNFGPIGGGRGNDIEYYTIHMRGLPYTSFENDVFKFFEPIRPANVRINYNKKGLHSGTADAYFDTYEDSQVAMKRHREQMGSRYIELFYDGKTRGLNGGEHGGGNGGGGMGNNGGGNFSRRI
# [3] = molecular target: T3, Hrp48-GFP (Drosophila melanogaster) (UniProt P48809)
# T3 sequence: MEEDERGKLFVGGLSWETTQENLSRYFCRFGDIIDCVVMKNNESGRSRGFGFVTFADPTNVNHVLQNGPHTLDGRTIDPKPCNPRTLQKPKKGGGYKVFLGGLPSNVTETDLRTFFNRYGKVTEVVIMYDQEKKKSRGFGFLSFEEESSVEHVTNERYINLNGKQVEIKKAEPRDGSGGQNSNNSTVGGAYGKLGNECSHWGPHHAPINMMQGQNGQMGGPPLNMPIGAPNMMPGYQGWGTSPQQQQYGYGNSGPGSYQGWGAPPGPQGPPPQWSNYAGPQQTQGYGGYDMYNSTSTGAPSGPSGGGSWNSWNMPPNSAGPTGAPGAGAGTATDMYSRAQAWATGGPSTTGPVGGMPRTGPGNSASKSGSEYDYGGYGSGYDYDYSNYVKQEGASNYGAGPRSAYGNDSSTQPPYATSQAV
# [4] = molecular target: T4, Vas-GFP (Drosophila melanogaster) (UniProt P09052)
# T4 sequence: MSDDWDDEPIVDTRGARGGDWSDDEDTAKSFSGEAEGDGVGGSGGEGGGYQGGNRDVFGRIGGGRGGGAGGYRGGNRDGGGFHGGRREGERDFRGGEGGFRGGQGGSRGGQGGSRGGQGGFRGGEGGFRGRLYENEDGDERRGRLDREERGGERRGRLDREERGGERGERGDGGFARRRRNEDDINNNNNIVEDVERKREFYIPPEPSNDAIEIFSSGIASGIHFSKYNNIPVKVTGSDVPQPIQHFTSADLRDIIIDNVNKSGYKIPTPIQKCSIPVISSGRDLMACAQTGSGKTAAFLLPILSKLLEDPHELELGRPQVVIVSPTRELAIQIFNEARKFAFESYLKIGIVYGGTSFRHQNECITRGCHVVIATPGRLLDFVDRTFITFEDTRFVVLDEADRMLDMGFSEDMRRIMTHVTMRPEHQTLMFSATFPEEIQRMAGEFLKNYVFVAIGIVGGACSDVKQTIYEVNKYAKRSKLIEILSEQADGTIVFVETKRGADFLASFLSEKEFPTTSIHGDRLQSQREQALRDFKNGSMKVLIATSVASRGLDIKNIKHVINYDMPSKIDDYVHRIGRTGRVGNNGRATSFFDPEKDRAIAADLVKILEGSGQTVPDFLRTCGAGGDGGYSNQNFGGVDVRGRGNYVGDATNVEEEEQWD
binding [3],binding [4],Substance,further results
,,Dicer,binding [1]: binds
binds,,Mahe (Maheshvara) (endogenous) (from UniProt Q9W3M7),binding [2]: binds
,,CG10077 (endogenous),binding [2]: binds
,binds,Kumo (Qin),
binds,binds,CG5726 protein (from UniProt A1ZB44),binding [2]: binds
,binds,Fmr1 (from UniProt Q9NFU0 1-684),
,binds,Fat facets (from UniProt P55824 1-2778),
,binds,Tapas,
binds,,eIF3d,
binds,binds,SmB (from UniProt Q05856 1-199),binding [2]: binds; binding [1]: binds weakly
,no binding,eIF5B,
binds,,Orb,
binds,,PABP (from UniProt P21187 1-634),
,no binding,eIF4A (from UniProt Q02748 1-403),
,binds,cap-binding complex of eIF4E-4G,
binds,,Syncrip,
